This data set in a line: Immobilized amount of trypsin on hydrogel-coated measurement chip by surface plasmon resonance. On the technique in general: In SPR one partner is held on a chip, and binding of the other changes the refractive index at the surface.

As to Trypsin, the “Protein immobilized amount (RU)” value by setting is: (Experiment No. 1: phosphate buffer (pH 7.4), 10 mg/ml, 1 hr, washing phosphate buffer (pH 7.4)) 4150 RU; (Experiment No. 2: phosphate buffer (pH 7.4), 2 mg/ml, 1 hr, washing phosphate buffer (pH 7.4)) 2580 RU; (Experiment No. 3: phosphate buffer (pH 7.4), 2 mg/ml, 1 hr, washing 10 mM NaOH) 2310 RU; (Experiment No. 4: acetate buffer (pH 5.0), 0.1 mg/ml, 0.2 hr, washing phosphate buffer (pH 7.4)) 5200 RU.

(Values after US20070020688A1, “Measurement method using biosensor” (FUJI PHOTO FILM CO., LTD., priority 2005, published 2007).)
